Tested on: normal rats
Assay: 31-day oral DIMEB treatment of normal rats, plasma and liver triglycerides
Assay type: in vivo
Settings: 31 days; for Liver triglycerides / Plasma triglycerides: normal rats
[1] = oral daily dose 150 mg/kg of DIMEB
[2] = oral daily dose 300 mg/kg of DIMEB

COC[C@H]1O[C@@H]2O[C@H]3[C@H](O)[C@@H](OC)[C@@H](O[C@H]4[C@H](O)[C@@H](OC)[C@@H](O[C@H]5[C@H](O)[C@@H](OC)[C@@H](O[C@H]6[C@H](O)[C@@H](OC)[C@@H](O[C@H]7[C@H](O)[C@@H](OC)[C@@H](O[C@H]8[C@H](O)[C@@H](OC)[C@@H](O[C@H]1[C@H](O)[C@H]2OC)O[C@@H]8COC)O[C@@H]7COC)O[C@@H]6COC)O[C@@H]5COC)O[C@@H]4COC)O[C@@H]3COC [DIMEB, heptakis(2,6-di-O-methyl)-β-cyclodextrin]
Liver triglycerides [1]: 3.6 ± 1.0 mg/100 ml | Plasma triglycerides [1]: 48.3 ± 4.5 mg/100 ml | Liver triglycerides [2]: 3.8 ± 1.4 mg/100 ml | Plasma triglycerides [2]: 45.9 ± 3.1 mg/100 ml | Influence on plasma and liver triglyceride content (rats on normal food, 150 mg/kg or 300 mg/kg daily oral): neither the plasma, nor the liver triglyceride content were influenced
